Laboratory results from paper PMC10577452.
These are yes or no findings as the source states them, for the method shown. In cells and extracts the contact can be indirect. Some entries that bind do so weakly or less than the wild type. Tags and fused reporters may be left off the sequences shown.

Sequences of proteins named here, by UniProt entry; tags and fusion partners are left off. Residues count along the entry.
UniProt P78504, residues 34-1218: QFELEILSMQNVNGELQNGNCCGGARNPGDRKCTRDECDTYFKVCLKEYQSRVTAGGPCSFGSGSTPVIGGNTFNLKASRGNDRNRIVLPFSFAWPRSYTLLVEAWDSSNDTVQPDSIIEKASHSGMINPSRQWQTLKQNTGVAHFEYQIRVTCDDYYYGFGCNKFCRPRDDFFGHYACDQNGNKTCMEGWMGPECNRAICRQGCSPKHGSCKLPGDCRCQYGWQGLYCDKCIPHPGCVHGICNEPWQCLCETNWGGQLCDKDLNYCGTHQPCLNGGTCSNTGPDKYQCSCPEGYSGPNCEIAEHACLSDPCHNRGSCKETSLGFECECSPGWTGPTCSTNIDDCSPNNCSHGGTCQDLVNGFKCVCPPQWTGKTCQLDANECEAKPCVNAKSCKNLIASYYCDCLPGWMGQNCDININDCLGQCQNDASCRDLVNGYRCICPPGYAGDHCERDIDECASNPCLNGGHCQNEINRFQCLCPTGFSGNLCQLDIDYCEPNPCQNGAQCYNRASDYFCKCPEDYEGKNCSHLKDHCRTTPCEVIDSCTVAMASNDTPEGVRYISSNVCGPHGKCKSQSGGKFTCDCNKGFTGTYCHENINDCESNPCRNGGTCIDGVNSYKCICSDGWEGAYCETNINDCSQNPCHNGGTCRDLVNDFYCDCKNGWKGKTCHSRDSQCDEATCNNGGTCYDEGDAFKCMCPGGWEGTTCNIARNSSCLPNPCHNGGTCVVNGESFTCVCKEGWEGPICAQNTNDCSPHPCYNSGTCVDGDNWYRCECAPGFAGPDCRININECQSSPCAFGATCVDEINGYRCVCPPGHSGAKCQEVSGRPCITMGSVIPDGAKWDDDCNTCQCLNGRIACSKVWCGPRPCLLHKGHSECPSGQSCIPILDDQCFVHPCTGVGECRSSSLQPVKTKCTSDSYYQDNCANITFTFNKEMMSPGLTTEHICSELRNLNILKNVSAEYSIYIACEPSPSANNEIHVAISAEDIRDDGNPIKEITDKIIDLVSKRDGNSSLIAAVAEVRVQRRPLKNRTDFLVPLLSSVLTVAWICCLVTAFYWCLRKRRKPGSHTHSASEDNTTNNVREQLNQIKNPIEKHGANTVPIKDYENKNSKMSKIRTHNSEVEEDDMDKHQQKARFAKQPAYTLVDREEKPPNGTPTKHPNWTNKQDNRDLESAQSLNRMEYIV

Key:
[1] = target: T1, Flag-Neuralized (neuralized-like 1, Neurl1) (UniProt O76050); assay: co-IP; HEK293 cells transfected with 600 ng HA-Jagged1, 400 ng Flag-Neuralized and 0, 40 or 80 ng pcDNA3.1-Neuritin for 24 h; IP and western blot for Jagged1
T1 sequence: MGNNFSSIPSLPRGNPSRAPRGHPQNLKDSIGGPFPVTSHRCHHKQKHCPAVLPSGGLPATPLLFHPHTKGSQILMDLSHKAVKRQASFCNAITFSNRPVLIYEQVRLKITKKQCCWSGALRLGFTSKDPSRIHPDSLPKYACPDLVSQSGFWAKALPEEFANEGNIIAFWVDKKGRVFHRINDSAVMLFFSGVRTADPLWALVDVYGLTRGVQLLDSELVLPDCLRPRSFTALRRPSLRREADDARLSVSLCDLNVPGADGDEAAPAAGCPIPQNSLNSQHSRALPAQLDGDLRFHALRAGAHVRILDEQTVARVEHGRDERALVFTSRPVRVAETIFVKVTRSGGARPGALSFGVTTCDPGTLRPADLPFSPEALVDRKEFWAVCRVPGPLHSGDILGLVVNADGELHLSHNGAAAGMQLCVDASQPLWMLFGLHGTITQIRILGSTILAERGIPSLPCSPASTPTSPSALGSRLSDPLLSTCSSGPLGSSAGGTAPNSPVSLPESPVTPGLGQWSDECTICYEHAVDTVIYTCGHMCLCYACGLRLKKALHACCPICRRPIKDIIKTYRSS

[2] = target: T1, Flag-Neuralized (neuralized-like 1, Neurl1); assay: co-IP; HEK293 cells transfected with HA-Jagged1 and Flag-Neuralized, proteins collected 12, 24, 36 and 48 h after transfection; lysate precipitated with primary antibody and agarose beads, western blot; precipitating antibody not stated

“HA-Jagged1 (from UniProt P78504 34-1218) (ligand)” was tested, and the binding [1] was “binds” and the binding [2] was “binds”.
